Data: US20250381168A1, “VLA4 INHIBITORS AND USES THEREOF” (Washington University, priority 2022, published 2025)
The source holds more than one record for some entries. Only these are listed. The source may hold further records. Values given together do not match, cause unknown; some may be repeats, others may stem from another dose, organism or construct than stated.

Tested on: hematopoietic stem/progenitor cells (HSPCs)
Assay: HSPC mobilization into peripheral blood, colony forming unit (CFU) assay
Conditions: mice

| SMILES | time to which HSPC mobilization is extended after a single dose |
| --- | --- |
| COCCOCCOCCOCCOCCOCCOCCOCCOCCOCCOCCOCCOCCOCCOCCOCCOCCOCCOCCOCCOCCOCCOCCOCCn1cc(COCCOCCOCc2cc(OC)c(-c3ccc(C[C@H](NC(=O)[C@@H]4CCCN4S(=O)(=O)c4cc(Cl)cc(Cl)c4)C(=O)O)cc3)c(OC)c2)nn1 | 4 hours and > 4 hours |
| COCCOCCOCCOCCOCCOCCOCCOCCOCCOCCOCCOCCOCCOCCOCCOCCOCCOCCOCCOCCOCCOCCOCCOCCOCc1cc(OC)c(-c2ccc(C[C@H](NC(=O)[C@@H]3CCCN3S(=O)(=O)c3cc(Cl)cc(Cl)c3)C(=O)O)cc2)c(OC)c1 [Example 1] | 4 hours and 6 hours and at least 6 hours |
